Data as given in US8129558B2, “Pesticide naphthyloxy substituted phenylamidine derivatives” (Bayer Cropscience AG, priority 2005, dated 2012).
Some results were stated once for a whole list of compounds, not compound by compound.

How the values were obtained:
Alternaria solani = experiment: Efficacy Example C: in vivo protective test on Alternaria solani (leaf spot of tomato); conditions: 500 ppm of active ingredient, evaluated 7 days after inoculation
Botrytis cinerea = experiment: Efficacy Example E: in vivo protective test on Botrytis cinerea (cucumbers); conditions: 500 ppm of active ingredient; cucumber plants; evaluated 5-6 days after inoculation
Venturia inaequalis = experiment: Efficacy Example G: in vivo protective test on Venturia inequaelis (apples); conditions: 100 ppm of active ingredient, evaluated 10 days after inoculation
Uromyces appendiculatus = experiment: Efficacy Example F: in vivo protective test on Uromyces appendiculatus (beans); conditions: 100 ppm of active ingredient, evaluated 10 days after inoculation

| SMILES | efficacy (Alternaria solani) | efficacy (Botrytis cinerea) | efficacy (Venturia inaequalis) | efficacy (Uromyces appendiculatus) |
| --- | --- | --- | --- | --- |
| CCCCNc1ccc2ccc(Oc3cc(C)c(N=CN(C)C(C)C)cc3C)cc2c1 [Compound 20] | ≥ 70% | – | – | – |
| Cc1cc(Oc2ccc3cc(C(=O)c4ccccc4)ccc3c2)c(C)cc1N=CN(C)C(C)C [Compound 13] | – | ≥ 70% | ≥ 70% | ≥ 70% |
| CCN(C)C=Nc1cc(C)c(Oc2ccc3ccc(OC)cc3c2)cc1C [Compound 17] | – | – | ≥ 70% | ≥ 70% |
| CCCN(C)C=Nc1cc(C)c(Oc2ccc3cc(C#N)ccc3c2)cc1C [Compound 10] | – | – | ≥ 70% | ≥ 70% |
